# Laboratory results as given in PubChem BioAssay AID2685 (National Center for Advancing Translational Sciences (NCATS), 2010).
# The other results are listed elsewhere or left out. Shown are side measurements of this screen, not its main read-out; they come without a call. Most of these compounds were active or inconclusive in the main read-out, so they are no random draw. The note in brackets gives the kind of curve behind each potency; many fits are weak.
# Experiment: qHTS Assay for Lipid Storage Modulators in Drosophila S3 Cells;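 for cell number change: cells counted by Cell Tracker Red CMTPX staining in the red channel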
# Conditions: BODIPY lipid droplet fluorescence, 18-24 h; for cell number change: measured here: cell count max response, cells fed with added oleic acid
# Summary of the method: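 Laser-scanning cytometry quantifies lipid droplet accumulation (500–530 nm total intensity; droplet/cell object ratio) in oleic acid-fed (400 uM added) Drosophila S3 cells treated with a concentration series. 20 uM Triacsin C defined 100% inhibition.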
# [1] = measured here: cell number channel AC50, cells fed with added oleic acid
# [2] = measured here: lipid fluorescence (Fed channel) AC50, cells fed with added oleic acid
Structure (SMILES),cell number change [%],AC50 [1],AC50 [2]
Cc1ccc(-c2nc(Nc3ccc(O)cc3)c3ccccc3n2)cc1,-40.3,"29100 nM [falling, single point]","18400 nM [falling, single point]"
FC(F)(F)c1ccccc1NC(=S)Nc1ccccc1,-50.5,"206 nM [falling, full curve]",
O=C(NC1CCN(Cc2ccccc2)CC1)C1COc2ccccc2O1 (configuration not stated),6.71,,"29100 nM [rising, single point]"
CC(=O)SCC(C)C(=O)NCc1ccccc1 (configuration not stated),-13.8,,"259 nM [falling, full curve]"
O=c1c2cc(N3CCOCC3)ccc2[nH]c(=S)n1Cc1ccc(Cl)cc1,,"23.1 nM [rising, full curve, poor fit]","92 nM [rising, full curve]"
Cc1nc(/C=C\C(=O)O)c2cc(C)oc2n1,-41.4,"4.61 nM [falling, full curve, poor fit]","4.61 nM [falling, full curve, poor fit]"
Cc1ccc(N(C(=O)c2ccccn2)C(C(=O)NC2CCCCC2)c2ccncc2)cc1 (configuration not stated),-23.8,,
Cn1c(N)c(S(=O)(=O)N2CCCC2)c(=O)n(C)c1=O,1.85,,"35500 nM [rising, single point]"
OCCN(Cc1ccccc1)CC1CC=CCC1 (configuration not stated),,"146 nM [falling, full curve]",
COc1ccc(C(CNC(=O)c2cc3ccccc3o2)N2CCCC2)cc1 (configuration not stated),4.15,,"116 nM [falling, full curve, poor fit]"
COc1ccccc1NC(=O)CSc1nnnn1-c1ccc(F)cc1,-16.5,,"411 nM [rising, single point]"
Cc1ccc(NC(=O)CC2CCCC2)c(Br)c1,-10.3,,
COc1ccc(OCCn2c(=O)sc3ccccc32)cc1,1.83,,"130 nM [rising, full curve, poor fit]"
CCCCNC(=O)c1cn(C)c2ccc(S(=O)(=O)N3CC(C)CC(C)C3)cc2c1=O (configuration not stated),-9.16,,"580 nM [falling, single point]"
CCn1cc(C(=O)OCC(=O)Nc2ccc(S(=O)(=O)N3CCCC3)cc2)c(=O)c2ccc(C)nc21,30.8,"3660 nM [rising, full curve]",
O=[N+]([O-])c1cccc2cn[nH]c12,-1.61,,"29100 nM [rising, single point]"
O=C(NCCS(=O)(=O)c1ccc(Cl)cc1)c1ccc(F)cc1,36.1,"16400 nM [rising, single point]","580 nM [falling, single point]"
O=C(O)c1cc(Cl)c(Cl)cc1C(=O)N1CCCC1,-201,"25900 nM [falling, partial curve]","29100 nM [falling, single point]"
Cc1ccc(S(=O)(=O)N2C(=O)C(c3ccccc3)SC2=Nc2ccccc2)cc1 (configuration not stated),-69.7,"25900 nM [falling, single point]","731 nM [falling, full curve, poor fit]"

# Three consecutive records out of the list so far, quoted:
Structure (SMILES),cell number change [%],AC50 [1],AC50 [2]
Cn1c(N)c(S(=O)(=O)N2CCCC2)c(=O)n(C)c1=O,1.85,,"35500 nM [rising, single point]"
OCCN(Cc1ccccc1)CC1CC=CCC1 (configuration not stated),,"146 nM [falling, full curve]",
COc1ccc(C(CNC(=O)c2cc3ccccc3o2)N2CCCC2)cc1 (configuration not stated),4.15,,"116 nM [falling, full curve, poor fit]"

# Continued:

Structure (SMILES),cell number change [%],AC50 [1],AC50 [2]
COc1cc(OC)cc(C(=O)OCC(=O)Nc2ccc(F)cc2F)c1,55.2,"16400 nM [rising, single point]","29100 nM [rising, single point]"
O=C(N=Nc1c(O)[nH]c2ccccc12)c1ccc2c(c1)OCO2,11.9,"103 nM [rising, full curve, poor fit]",
Cn1ccnc1Sc1cc(Cl)ccc1[N+](=O)[O-],6.55,,
C#CC(CC)(CC)NC(=O)c1nn(-c2ccccc2Cl)c(C)cc1=O,10.5,,
COc1ccc2o/c(=N\O)c(C(=O)Nc3ccc(C)cc3)cc2c1,-50.1,,"23100 nM [falling, partial curve]"
CCCOc1cc(CN2CCCCC2)cc(C(C)=O)c1,5.16,,"23100 nM [falling, single point]"
Cc1ccc(CN2C(=O)C3CCCN3c3ncccc32)cc1 (configuration not stated),9.87,,"51.7 nM [rising, full curve, poor fit]"
CCOC(=O)Cn1c(=O)n(Cc2ccco2)c(=O)c2ccc(C(=O)NCCc3ccccc3)cc21,-16.9,,"820 nM [rising, full curve]"
CCOc1ncccc1C(=O)OCC(=O)c1ccccc1Br,-24.2,"103 nM [falling, full curve, poor fit]","651 nM [falling, full curve, poor fit]"
COc1ccc(N(C(=O)C(C)C)S(=O)(=O)c2cccc([N+](=O)[O-])c2)cc1,-43.8,"2060 nM [falling, full curve]","2310 nM [falling, full curve]"
O=C(NC1CCCC1)C(c1ccccn1)N(Cc1ccccc1F)C(=O)c1csnn1 (configuration not stated),27.7,,"206 nM [falling, single point]"
Cc1ccc(Cl)cc1N1CCN(Cc2nc3ccsc3c(=O)[nH]2)CC1,,"651 nM [falling, single point]",
COc1ccccc1OCC(O)CN1CCN(CC(=O)Nc2c(C)cccc2C)CC1 (configuration not stated),14,,
O=[N+]([O-])c1ccc(/C=C/c2nc3ccc([N+](=O)[O-])cc3[nH]2)cc1,8.97,,"20600 nM [rising, partial curve, poor fit]"
CN(C)S(=O)(=O)c1ccc(C(=O)Nc2nnc(SCc3cccc(F)c3)s2)cc1,-10.1,,"18400 nM [rising, partial curve]"
CCN(CC)CC(O)COc1ccc2c(c1)OCO2 (configuration not stated),-48.1,"4110 nM [falling, partial curve]","29100 nM [falling, single point]"
CC(=O)NC(CC(=O)Nc1ccc(S(=O)(=O)Nc2nccs2)cc1)c1ccccc1 (configuration not stated),3.5,,
CC(=O)N1CCN(C(=O)CNc2cc(C(F)(F)F)ccc2OCC(F)(F)F)CC1,-9.66,,"146 nM [falling, full curve, poor fit]"
Cc1ccc(NC(=O)C(C)c2cccc(C(=O)c3ccccc3)c2)cc1O (configuration not stated),12,,"29100 nM [falling, single point]"
